Measured values: paper PMC4848565
These are yes or no findings as the source states them, for the method shown. Binding can be weak; no strength is given. For some of these results: Binding seen in cells or lysates may run through a third protein. Each block holds one substance with its values, some of them ahead of it.

Key:
[1] = molecular target: Solyc02g090430 (BiFC fusion) (tomato (Solanum lycopersicum cv. Ailsa Craig)); assay: split reporter; BiFC with 35S-pBI-NBi and 35S-pBI-CBi fusions transiently co-expressed in N. benthamiana leaf cells by Agrobacterium-mediated infiltration; at least 48 hours; YFP fluorescence by confocal microscopy, DAPI counter-stain
[2] = molecular target: Solyc07g065840 (tomato (Solanum lycopersicum cv. Ailsa Craig)) (UniProt P36181); assay: two-hybrid; bait in pEG202 and prey in pJG4-5, co-transfected into yeast strain EGY48; LacZ reporter (40 ug/ml X-gal, 3 days at 28 °C) and Leucine reporter; repeated at least twice
[3] = molecular target: Solyc12g057060 (tomato (Solanum lycopersicum cv. Ailsa Craig)); assay: as above
[4] = molecular target: Solyc11g069700 (tomato (Solanum lycopersicum cv. Ailsa Craig)); assay: split reporter; BiFC with 35S-pBI-NBi and 35S-pBI-CBi fusions transiently co-expressed in N. benthamiana leaf cells by Agrobacterium-mediated infiltration; at least 48 hours; YFP fluorescence by confocal microscopy, DAPI counter-stain

binding [1]: binds
Substance: Solyc01g090750 (from UniProt A0A3Q7EK01)

binding [2]: binds
Substance: Solyc02g090430 (from UniProt A0A3Q7FAA8)

binding [3]: binds
Substance: Solyc05g005930 (from UniProt A0A3Q7GDG9)

binding [4]: binds
Substance: Solyc06g082440 (from UniProt A0A3Q7H4T0)
